Measured values: article PMC8224457
Results are given in words; binding and its absence hold for the method and conditions named. Binding seen in cells or lysates may run through a third protein. A yes stands for co-enrichment or nearness to the bait. Other partners may have been found.

The chains behind the UniProt entries cited, without tags or fusion partners.
UniProt P09429: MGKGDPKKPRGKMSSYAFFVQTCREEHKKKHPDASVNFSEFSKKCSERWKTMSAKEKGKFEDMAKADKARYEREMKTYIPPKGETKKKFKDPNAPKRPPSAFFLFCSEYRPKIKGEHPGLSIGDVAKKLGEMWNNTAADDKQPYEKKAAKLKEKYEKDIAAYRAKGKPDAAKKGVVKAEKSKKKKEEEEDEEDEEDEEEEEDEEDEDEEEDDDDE
UniProt P38159: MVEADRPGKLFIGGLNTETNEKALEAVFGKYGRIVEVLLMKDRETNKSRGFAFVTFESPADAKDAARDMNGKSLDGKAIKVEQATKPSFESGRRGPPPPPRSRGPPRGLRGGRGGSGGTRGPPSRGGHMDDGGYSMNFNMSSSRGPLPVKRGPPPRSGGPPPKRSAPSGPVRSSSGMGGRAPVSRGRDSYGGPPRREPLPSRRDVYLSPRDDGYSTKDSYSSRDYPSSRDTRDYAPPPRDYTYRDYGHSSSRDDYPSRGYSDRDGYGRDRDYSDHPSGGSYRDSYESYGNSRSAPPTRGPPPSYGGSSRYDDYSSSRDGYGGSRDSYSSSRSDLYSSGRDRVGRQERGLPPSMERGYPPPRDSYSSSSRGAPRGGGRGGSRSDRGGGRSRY
UniProt P26599: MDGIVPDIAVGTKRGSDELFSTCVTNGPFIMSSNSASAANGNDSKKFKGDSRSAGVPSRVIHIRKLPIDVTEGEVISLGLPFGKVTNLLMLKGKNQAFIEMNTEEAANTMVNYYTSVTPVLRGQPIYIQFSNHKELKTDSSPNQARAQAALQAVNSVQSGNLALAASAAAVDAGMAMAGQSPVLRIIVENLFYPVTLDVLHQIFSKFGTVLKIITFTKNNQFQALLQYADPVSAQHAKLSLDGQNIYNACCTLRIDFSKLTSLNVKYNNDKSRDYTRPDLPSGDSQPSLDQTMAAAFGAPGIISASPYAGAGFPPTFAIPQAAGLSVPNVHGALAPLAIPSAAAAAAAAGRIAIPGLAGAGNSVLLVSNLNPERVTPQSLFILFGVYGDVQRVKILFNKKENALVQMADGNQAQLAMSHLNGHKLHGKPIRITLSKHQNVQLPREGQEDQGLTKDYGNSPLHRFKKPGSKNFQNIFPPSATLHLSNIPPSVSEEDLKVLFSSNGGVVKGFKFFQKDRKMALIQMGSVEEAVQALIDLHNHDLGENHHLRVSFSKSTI
UniProt Q9NYF8: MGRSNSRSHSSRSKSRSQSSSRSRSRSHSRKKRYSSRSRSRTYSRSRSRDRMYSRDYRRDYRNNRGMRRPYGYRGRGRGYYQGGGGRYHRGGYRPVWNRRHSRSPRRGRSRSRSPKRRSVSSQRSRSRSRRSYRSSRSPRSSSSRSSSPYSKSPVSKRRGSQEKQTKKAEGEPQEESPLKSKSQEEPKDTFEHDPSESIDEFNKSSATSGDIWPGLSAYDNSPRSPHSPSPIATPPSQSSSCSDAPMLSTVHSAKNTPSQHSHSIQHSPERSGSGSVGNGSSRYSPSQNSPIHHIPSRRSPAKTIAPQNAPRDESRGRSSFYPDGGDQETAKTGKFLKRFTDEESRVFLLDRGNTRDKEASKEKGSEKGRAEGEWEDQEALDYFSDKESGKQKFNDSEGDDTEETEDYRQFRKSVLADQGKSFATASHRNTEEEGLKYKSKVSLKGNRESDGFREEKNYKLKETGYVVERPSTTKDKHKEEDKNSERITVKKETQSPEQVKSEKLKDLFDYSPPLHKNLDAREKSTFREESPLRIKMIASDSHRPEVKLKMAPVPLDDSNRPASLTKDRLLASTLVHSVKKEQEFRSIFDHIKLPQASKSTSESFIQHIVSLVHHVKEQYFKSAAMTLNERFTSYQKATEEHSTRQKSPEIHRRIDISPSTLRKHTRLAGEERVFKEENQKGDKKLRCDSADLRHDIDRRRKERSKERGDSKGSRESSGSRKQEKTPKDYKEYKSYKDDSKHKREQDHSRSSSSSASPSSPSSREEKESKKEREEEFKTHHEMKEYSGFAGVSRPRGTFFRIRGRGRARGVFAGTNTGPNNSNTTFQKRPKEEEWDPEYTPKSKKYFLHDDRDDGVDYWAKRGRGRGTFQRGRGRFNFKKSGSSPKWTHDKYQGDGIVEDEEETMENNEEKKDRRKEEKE

Target: high-mobility group box 1 (HMGB1) protein (human (endogenous in IMR90)) (UniProt P09429)
Assay: affinity purification with mass spectrometry; anti-HMGB1 (PCRP-HMGB1-4F10, DSHB) on protein-G magnetic beads; lysate of proliferating IMR90 (20 mM Tris-HCl pH 8.0, 1% NP-40, 150 mM NaCl, 2 mM EDTA), sonicated, RNase A treated; 4°C overnight; three replicates

Molecule	binding
RBMX (from UniProt P38159 1-391)	binds
PTBP1 (from UniProt P26599 1-557)	binds
BCLAF1 (from UniProt Q9NYF8 1-920)	binds
ILF3 (protein, UniProt Q12906 1-894) MRPMRIFVNDDRHVMAKHSSVYPTQEELEAVQNMVSHTERALKAVSDWIDEQEKGSSEQAESDNMDVPPEDDSKEGAGEQKTEHMTRTLRGVMRVGLVAKGLLLKGDLDLELVLLCKEKPTTALLDKVADNLAIQLAAVTEDKYEILQSVDDAAIVIKNTKEPPLSLTIHLTSPVVREEMEKVLAGETLSVNDPPDVLDRQKCLAALASLRHAKWFQARANGLKSCVIVIRVLRDLCTRVPTWGPLRGWPLELLCEKSIGTANRPMGAGEALRRVLECLASGIVMPDGSGIYDPCEKEATDAIGHLDRQQREDITQSAQHALRLAAFGQLHKVLGMDPLPSKMPKKPKNENPVDYTVQIPPSTTYAITPMKRPMEEDGEEKSPSKKKKKIQKKEEKAEPPQAMNALMRLNQLKPGLQYKLVSQTGPVHAPIFTMSVEVDGNSFEASGPSKKTAKLHVAVKVLQDMGLPTGAEGRDSSKGEDSAEETEAKPAVVAPAPVVEAVSTPSAAFPSDATAEQGPILTKHGKNPVMELNEKRRGLKYELISETGGSHDKRFVMEVEVDGQKFQGAGSNKKVAKAYAALAALEKLFPDTPLALDANKKKRAPVPVRGGPKFAAKPHNPGFGMGGPMHNEVPPPPNLRGRGRGGSIRGRGRGRGFGGANHGGYMNAGAGYGSYGYGGNSATAGYSQFYSNGGHSGNASGGGGGGGGGSSGYGSYYQGDNYNSPVPPKHAGKKQPHGGQQKPSYGSGYQSHQGQQQSYNQSPYSNYGPPQGKQKGYNHGQGSYSYSNSYNSPGGGGGSDYNYESKFNYSGSGGRSGGNSYGSGGASYNPGSHGGYGGGSGGGSSYQGKQGGYSQSNYNSPGSGQNYSGPPSSYQSSQGGYGRNADHSMNYQYR	binds

More lines, now with the values ahead:

binding	Molecule
binds	ZC3H18 (protein, UniProt Q86VM9 1-953) MDVAESPERDPHSPEDEEQPQGLSDDDILRDSGSDQDLDGAGVRASDLEDEESAARGPSQEEEDNHSDEEDRASEPKSQDQDSEVNELSRGPTSSPCEEEGDEGEEDRTSDLRDEASSVTRELDEHELDYDEEVPEEPAPAVQEDEAEKAGAEDDEEKGEGTPREEGKAGVQSVGEKESLEAAKEKKKEDDDGEIDDGEIDDDDLEEGEVKDPSDRKVRPRPTCRFFMKGNCTWGMNCRFIHPGVNDKGNYSLITKADPFPPNGAPPLGPHPLMPANPWGGPVVDEILPPPPPEPPTESAWERGLRHAKEVLKKATIRKEQEPDFEEKRFTVTIGEDEREFDKENEVFRDWNSRIPRDVRDTVLEPYADPYYDYEIERFWRGGQYENFRVQYTETEPYHNYRERERERERENRQRERERERERDRERERRQRERERERERERDKERQRRKEEWERERAKRDEKDRQHRDRDREKEREKEKGKPKPRSPQPPSRQAEPPKKEAATTGPQVKRADEWKDPWRRSKSPKKKLGVSVSPSRARRRRKTSASSASASNSSRSSSRSSSYSGSGSSRSRSRSSSYSSYSSRSSRHSSFSGSRSRSRSFSSSPSPSPTPSPHRPSIRTKGEPAPPPGKAGEKSVKKPAPPPAPPQATKTTAPVPEPTKPGDPREARRKERPARTPPRRRTLSGSGSGSGSSYSGSSSRSRSLSVSSVSSVSSATSSSSSAHSVDSEDMYADLASPVSSASSRSPAPAQTRKEKGKSKKEDGVKEEKRKRDSSTQPPKSAKPPAGGKSSQQPSTPQQAPPGQPQQGTFVAHKEIKLTLLNKAADKGSRKRYEPSDKDRQSPPPAKRPNTSPDRGSRDRKSGGRLGSPKPERQRGQNSKAPAAPADRKRQLSPQSKSSSKVTSVPGKASDPGAASTKSGKASTLSRREELLKQLKAVEDAIARKRAKIPGKA
binds	SRSF7 (protein, UniProt Q16629 1-238) MSRYGRYGGETKVYVGNLGTGAGKGELERAFSYYGPLRTVWIARNPPGFAFVEFEDPRDAEDAVRGLDGKVICGSRVRVELSTGMPRRSRFDRPPARRPFDPNDRCYECGEKGHYAYDCHRYSRRRRSRSRSRSHSRSRGRRYSRSRSRSRGRRSRSASPRRSRSISLRRSRSASLRRSRSGSIKGSRYFQSPSRSRSRSRSISRPRSSRSKSRSPSPKRSRSPSGSPRRSASPERMD
binds	TRA2B (protein, UniProt P62995 1-288) MSDSGEQNYGERESRSASRSGSAHGSGKSARHTPARSRSKEDSRRSRSKSRSRSESRSRSRRSSRRHYTRSRSRSRSHRRSRSRSYSRDYRRRHSHSHSPMSTRRRHVGNRANPDPNCCLGVFGLSLYTTERDLREVFSKYGPIADVSIVYDQQSRRSRGFAFVYFENVDDAKEAKERANGMELDGRRIRVDFSITKRPHTPTPGIYMGRPTYGSSRRRDYYDRGYDRGYDDRDYYSRSYRGGGGGGGGWRAAQDRDQIYRRRSPSPYYSRGGYRSRSRSRSYSPRRY
